These are yes or no findings as the source states them, for the method shown. Binding seen in cells or lysates may run through a third protein. Some results given as binding are weak or reduced against the parent protein; the word gives no strength.
Experiments:
[1] = biological target: Myc-KEAP1 (Kelch-like ECH-associated protein 1) (UniProt Q14145); assay: co-IP; HEK293 cells co-transfected with Myc-KEAP1 and HA-NCOA4 plasmids; IP with anti-HA or anti-Myc antibody (reciprocal)
[2] = biological target: HA-NCOA4 (nuclear receptor co-activator 4) (UniProt Q13772); assay: as above

Protein sequences, listed by entry. Tags and fused reporters are not part of them.
UniProt Q14145: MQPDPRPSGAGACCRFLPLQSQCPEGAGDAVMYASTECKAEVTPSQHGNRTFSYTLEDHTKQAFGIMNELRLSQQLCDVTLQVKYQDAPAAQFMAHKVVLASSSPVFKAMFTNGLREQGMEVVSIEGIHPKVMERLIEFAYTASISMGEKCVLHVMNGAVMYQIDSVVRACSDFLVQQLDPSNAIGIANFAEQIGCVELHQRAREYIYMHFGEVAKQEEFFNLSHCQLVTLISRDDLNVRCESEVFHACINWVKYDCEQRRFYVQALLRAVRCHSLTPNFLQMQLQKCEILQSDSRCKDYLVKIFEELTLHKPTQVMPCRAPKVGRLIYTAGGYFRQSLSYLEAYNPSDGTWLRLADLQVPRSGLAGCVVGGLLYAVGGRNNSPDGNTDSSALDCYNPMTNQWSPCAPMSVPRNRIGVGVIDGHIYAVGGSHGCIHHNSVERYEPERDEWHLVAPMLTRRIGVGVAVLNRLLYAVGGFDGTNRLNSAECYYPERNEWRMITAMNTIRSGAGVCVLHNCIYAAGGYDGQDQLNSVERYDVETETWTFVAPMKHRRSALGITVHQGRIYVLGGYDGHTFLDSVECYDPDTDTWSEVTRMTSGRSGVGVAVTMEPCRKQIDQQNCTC
UniProt Q13772: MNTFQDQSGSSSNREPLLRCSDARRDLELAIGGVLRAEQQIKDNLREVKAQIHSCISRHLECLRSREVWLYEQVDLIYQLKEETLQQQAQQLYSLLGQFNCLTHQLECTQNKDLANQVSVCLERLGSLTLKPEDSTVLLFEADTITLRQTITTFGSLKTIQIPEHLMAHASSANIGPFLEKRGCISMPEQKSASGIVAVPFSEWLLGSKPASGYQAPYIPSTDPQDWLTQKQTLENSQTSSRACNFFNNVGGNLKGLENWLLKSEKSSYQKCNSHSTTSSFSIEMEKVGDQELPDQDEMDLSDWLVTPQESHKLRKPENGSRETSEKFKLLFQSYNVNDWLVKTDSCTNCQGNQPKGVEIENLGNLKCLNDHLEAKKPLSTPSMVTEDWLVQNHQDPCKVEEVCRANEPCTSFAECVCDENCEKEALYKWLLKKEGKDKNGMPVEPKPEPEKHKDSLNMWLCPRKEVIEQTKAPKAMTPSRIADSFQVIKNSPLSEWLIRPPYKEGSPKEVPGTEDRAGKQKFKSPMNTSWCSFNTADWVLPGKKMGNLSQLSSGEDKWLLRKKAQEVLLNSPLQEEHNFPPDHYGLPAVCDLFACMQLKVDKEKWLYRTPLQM

| binding [1] | binding [2] | Substance |
| --- | --- | --- |
| binds |  | HA-NCOA4 (nuclear receptor co-activator 4) (from UniProt Q13772 1-614) |
|  | binds | Myc-KEAP1 (Kelch-like ECH-associated protein 1) (from UniProt Q14145 1-624) |
